Reference: patent US20040038290A1 (ROCKEFELLER UNIVERSITY, published 2004)
No constants are given. Whether binding was seen depends on the method and setting. For some assays here: Binding seen in cells or lysates may run through a third protein. Some results given as binding are weak or reduced against the parent protein; the word gives no strength.

T1: Aquifex aeolicus tau subunit of DNA polymerase III (Aquifex aeolicus)
T1 sequence: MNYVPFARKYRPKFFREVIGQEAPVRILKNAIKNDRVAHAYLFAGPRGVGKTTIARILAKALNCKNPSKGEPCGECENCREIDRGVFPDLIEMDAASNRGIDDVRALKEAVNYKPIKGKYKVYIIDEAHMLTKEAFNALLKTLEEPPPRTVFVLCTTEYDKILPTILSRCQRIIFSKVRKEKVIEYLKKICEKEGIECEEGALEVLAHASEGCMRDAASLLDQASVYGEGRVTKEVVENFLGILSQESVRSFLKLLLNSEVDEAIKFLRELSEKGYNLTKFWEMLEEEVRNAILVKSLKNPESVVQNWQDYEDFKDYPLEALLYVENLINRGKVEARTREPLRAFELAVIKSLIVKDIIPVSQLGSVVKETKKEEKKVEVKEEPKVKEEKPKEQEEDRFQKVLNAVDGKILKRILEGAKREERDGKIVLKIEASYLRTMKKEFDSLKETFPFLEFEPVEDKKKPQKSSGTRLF

T2: Aquifex aeolicus tau-δ-δ′ complex (Aquifex aeolicus) (UniProt O67189)
T2 sequence 1: T1 sequence
T2 sequence 2: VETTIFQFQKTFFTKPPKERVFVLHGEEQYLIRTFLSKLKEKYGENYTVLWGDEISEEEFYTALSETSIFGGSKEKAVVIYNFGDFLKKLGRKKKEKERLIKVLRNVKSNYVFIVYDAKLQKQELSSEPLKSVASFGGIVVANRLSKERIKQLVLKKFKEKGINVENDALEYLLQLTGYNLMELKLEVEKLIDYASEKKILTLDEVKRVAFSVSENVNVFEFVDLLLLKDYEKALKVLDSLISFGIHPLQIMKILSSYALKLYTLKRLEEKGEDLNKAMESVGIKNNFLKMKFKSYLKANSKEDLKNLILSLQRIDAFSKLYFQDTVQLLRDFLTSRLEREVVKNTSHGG
T2 sequence 3: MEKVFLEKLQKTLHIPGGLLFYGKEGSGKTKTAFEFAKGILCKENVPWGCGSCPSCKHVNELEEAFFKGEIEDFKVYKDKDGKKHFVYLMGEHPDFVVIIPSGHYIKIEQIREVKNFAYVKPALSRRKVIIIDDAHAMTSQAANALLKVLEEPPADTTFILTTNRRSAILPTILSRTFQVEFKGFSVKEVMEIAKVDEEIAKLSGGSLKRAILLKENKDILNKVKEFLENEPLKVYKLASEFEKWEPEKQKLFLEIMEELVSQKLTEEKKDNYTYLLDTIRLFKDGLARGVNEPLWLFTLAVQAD

B1: Aquifex aeolicus δ subunit of DNA polymerase III (protein)
chain: T2 sequence 2
B2: Aquifex aeolicus α subunit of DNA polymerase III (enzyme)
chain: MSKDFVHLHLHTQFSLLDGAIKIDELVKKAKEYGYKAVGMSDHGNLFGSYKFYKALKAEGIKPIIGMEAYFTTGSRFDRKTKTSEDNITDKYNHHLILIAKDDKGLKNLMKLSTLAYKEGFYYKPRIDYELLEKYGEGLIALTACLKGVPTYYASINEVKKAEEWVKKFKDIFGDDLYLELQANNIPEQEVANRNLIEIAKKYDVKLIATQDAHYLNPEDRYAHTVLMALQMKKTIHELSSGNFKCSNEDLHFAPPEYMWKKFEGKFEGWEKALLNTLEVMEKTADSFEIFENSTYLLPKYDVPPDKTLEEYLRELAYKGLRQRIERGQAKDTKEYWERLEYELEVINKMGFAGYFLIVQDFINWAKKNDIPVGPGRGSAGGSLVAYAIGITDVDPIKHGFLFERFLNPERVSMPDIDVDFCQDNREKVIEYVRNKYGHDNVAQIITYNVMKAKQTLRDVARAMGLPYSTADKLAKLIPQGDVQGTWLSLEEMYKTPVEELLQKYGEHRTDIEDNVKKFRQICEESPEIKQLVETALKLEGLTRHTSLHAAGVVIAPKPLSELVPLYYDKEGEVATQYDMVQLEELGLLKMDFLGLKTLTELKLMKELIKERHGVDINFLELPLDDPKVYKLLQEGKTTGVFQLESRGMKELLKKLKPDSFDDIVAVLALYRPGPLKSGLVDTYIKRKHGKEPVEYPFPELEPVLKETYGVIVYQEQVMKMSQILSGFTPGEADTLRKAIGKKKADLMAQMKDKFIQGAVERGYPEEKIRKLWEDIEKFASYSFNKSHSVAYGYISYWTAYVKAHYPAEFFAVKLTTEKNDNKFLNLIKDAKLFGFEILPPDINKSDVGFTIEGENRIRFGLARIKGVGEETAKIIVEARKKYKQFKGLADFINKTKNRKINKKVVEALVKAGAFDFTKKKRKELLAKVANSEKALMATQNSLFGAPKEEVEELDPLKLEKEVLGFYISGHPLDNYEKLLKNRYTPIEDLEEWDKESEAVLTGVITELKVKKTKNGDYMAVFNLVDKTGLIECVVFPGVYEEAKELIEEDRVVVVKGFLDEDLETENVKFVVKEVFSPEEFAKEMRNTLYIFLKREQALNGVAEKLKGIIENNRTEDGYNLVLTVDLGDYFVDLALPQDMKLKADRKVVEEIEKLGVKVII

Experiments:
[1] = molecular target: T1, Aquifex aeolicus tau subunit of DNA polymerase III (Aquifex aeolicus); assay: MonoQ co-elution of mixed pure subunits, SDS gel
[2] = molecular target: T2, Aquifex aeolicus tau-δ-δ′ complex (Aquifex aeolicus); assay: Superose 6 gel filtration of mixed pure subunits, SDS gel

Row | Binder | binding [1] | binding [2]
1 | B1 | binds | –
2 | B2 | – | binds
